For at least one compound, name, drawing or mass did not settle the structure.
System: EP4 mRNA in RCT-1 cells
Test: EP4 mRNA in RCT-1 cells (Northern blot)
Assay type: cell-based, rat

In the case of `CC1=C(/C=C/C(C)=C/C=C/C(C)=C/C(=O)O)C(C)(C)CCC1` [retinoic acid], the “effect on levels of EP4 mRNA” value is reported as “reduces”.
